Laboratory results: PubChem BioAssay AID1053208 (Peter MacCallum Cancer Centre, 2014)
This is a random part of about 17,000 reagents. In the full data, 788 (4.7%) are marked active. 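Calls rest on z-score classes alone; an extra cut-off of viability at most 70% of control was not applied to them.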 Entries without a mark were called inactive. Further read-outs or replicates are left out here.

- Purpose: 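Synthetic lethal interactions between gene loss and doxorubicin in osteosarcoma cells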 (primary screen)
- System: mouse osteosarcoma cells, early-passage culture from an engineered mouse model of fibroblastic bone tumour
- Reagent: siRNA pool against mouse genes, 40 nM
- Duration: about 120 h (48 h before drug, then 72 h with drug)
- Challenge: doxorubicin 100 nM for 72 h, roughly 30-40% inhibitory dose
- Detection: 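Viability read as ATP luminescence after 72 h of 100 nM doxorubicin or none, duplicate wells averaged, scaled to non-targeting siRNA, then expressed as robust z-scores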
- Reading the numbers: viability z-score with doxorubicin: higher = more viable cells under doxorubicin; viability z-score without drug: higher = more viable cells with knock-down alone
- Rule for the call: 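a pool counts as active when its viability z-score with doxorubicin is -2 or below and its z-score without drug lies between -2 and 2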

Adprs
- combined z-score class: no change with or without drug
- viability z-score with doxorubicin: 0.9
- viability z-score without drug: 0.17

Pds5b
- combined z-score class: no change with or without drug
- viability z-score with doxorubicin: -1.57
- viability z-score without drug: -1.18

Ctdsp1
- combined z-score class: no change with or without drug
- viability z-score with doxorubicin: -1.57
- viability z-score without drug: -1.01

Tafazzin
- combined z-score class: no change with or without drug
- viability z-score with doxorubicin: -0.9
- viability z-score without drug: -1.18

Trub2
- combined z-score class: no change with or without drug
- viability z-score with doxorubicin: 0.22
- viability z-score without drug: 1.85

Ms4a6c
- combined z-score class: no change with or without drug
- viability z-score with doxorubicin: -0.22
- viability z-score without drug: -1.85

Tbc1d8
- combined z-score class: no change with or without drug
- viability z-score with doxorubicin: 1.69
- viability z-score without drug: 0.34

Tjp2
- combined z-score class: no change with or without drug
- viability z-score with doxorubicin: -0.45
- viability z-score without drug: 0.51

Retnlg
- combined z-score class: no change with or without drug
- viability z-score with doxorubicin: -0.79
- viability z-score without drug: -0.17

Nme6
- combined z-score class: no change with or without drug
- viability z-score with doxorubicin: 0.11
- viability z-score without drug: 1.35

Reprinted from above for reference:
Tafazzin
- combined z-score class: no change with or without drug
- viability z-score with doxorubicin: -0.9
- viability z-score without drug: -1.18

Trub2
- combined z-score class: no change with or without drug
- viability z-score with doxorubicin: 0.22
- viability z-score without drug: 1.85

Ms4a6c
- combined z-score class: no change with or without drug
- viability z-score with doxorubicin: -0.22
- viability z-score without drug: -1.85

Tbc1d8
- combined z-score class: no change with or without drug
- viability z-score with doxorubicin: 1.69
- viability z-score without drug: 0.34

More results follow.
Tor3a
- combined z-score class: no change with or without drug
- viability z-score with doxorubicin: 0.9
- viability z-score without drug: 0.17

Aldh6a1
- combined z-score class: no change with or without drug
- viability z-score with doxorubicin: -0.67
- viability z-score without drug: 0.17

Mvd
- combined z-score class: no change with or without drug
- viability z-score with doxorubicin: -0.67
- viability z-score without drug: -1.01

Stmn1
- combined z-score class: no change with or without drug
- viability z-score with doxorubicin: -1.12
- viability z-score without drug: -0.51

Vps37b
- combined z-score class: no change with or without drug
- viability z-score with doxorubicin: 0.45
- viability z-score without drug: -0.51

Fam98c
- combined z-score class: no change with or without drug
- viability z-score with doxorubicin: -1.57
- viability z-score without drug: -0.17

Efcab9
- combined z-score class: low cell count with doxorubicin only (active)
- viability z-score with doxorubicin: -3.26
- viability z-score without drug: 0.17

C230066G23Rik
- combined z-score class: no change with or without drug
- viability z-score with doxorubicin: 0.45
- viability z-score without drug: 0.51

Zw10
- combined z-score class: no change with or without drug
- viability z-score with doxorubicin: 0
- viability z-score without drug: -0.67

Rnf115
- combined z-score class: no change with or without drug
- viability z-score with doxorubicin: 0.67
- viability z-score without drug: 1.85

Ddah2
- combined z-score class: no change with or without drug
- viability z-score with doxorubicin: 1.57
- viability z-score without drug: 0.67

Or4c104
- combined z-score class: no change with or without drug
- viability z-score with doxorubicin: -1.35
- viability z-score without drug: 0

Pfkfb4
- combined z-score class: no change with or without drug
- viability z-score with doxorubicin: -0.45
- viability z-score without drug: -1.85

Or8d6
- combined z-score class: no change with or without drug
- viability z-score with doxorubicin: -1.8
- viability z-score without drug: -0.17

Vmn1r195
- combined z-score class: no change with or without drug
- viability z-score with doxorubicin: -0.79
- viability z-score without drug: -0.84

Tpd52
- combined z-score class: no change with or without drug
- viability z-score with doxorubicin: 0
- viability z-score without drug: 0.17

Or6p1
- combined z-score class: high cell count without drug only
- viability z-score with doxorubicin: 0.9
- viability z-score without drug: 2.02

Alg3
- combined z-score class: no change with or without drug
- viability z-score with doxorubicin: 0.45
- viability z-score without drug: 1.18
